Some entries share one result that the patent states for a list of compounds.
Experiments:
[1] = tested on: Pyrenophora teres (Helminthosporium)/barley; assay: Effect against Pyrenophora teres (Helminthosporium)/barley (net blotch on barley); format: in vivo; settings: 0.02% active substance, spray; barley cv. Regina inoculated 2 days after application; assessed after 2 days incubation
[2] = tested on: Venturia inaegualis on apples; assay: Residual protective activity against Venturia inaegualis on apples (scab on apple); format: in vivo; settings: 0.02% active substance, spray; apple seedlings cv. McIntosh inoculated 1 day after application
[3] = tested on: Pyricularia oryzae/rice; format: in vivo; settings: 0.02% active substance, spray; rice cv. Sasanishiki inoculated 2 days after application; assessed after 6 days incubation
[4] = tested on: Puccinia graminis on wheat; format: in vivo; settings: 0.02% active substance, spray; wheat cv. Arina inoculated 2 days after application; assessed 10 days after inoculation
[5] = tested on: Botrytis cinerea/tomato; assay: Effect against Botrytis cinerea/tomato (Botrytis on tomatoes); format: in vivo; settings: 0.02% active substance, spray; tomato cv. Roter Gnom inoculated 2 days after application; assessed after 4 days incubation
[6] = tested on: Erysiphe graminis on barley; settings: 0.02% active substance, spray; barley cv. Regina; evaluated 6 days after infection
[7] = tested on: Septoria nodorum/wheat; assay: Effect against Septoria nodorum/wheat (Septoria leaf spot on wheat); format: in vivo; settings: 0.02% active substance, spray; wheat cv. Arina inoculated 1 day after application; assessed 8 days after inoculation
[8] = tested on: Plasmopara viticola on grapevine; assay: Effect against Plasmopara viticola on grapevine (grape downy mildew); format: in vivo; settings: 0.02% active substance, spray; grape seedlings cv. Gutedel inoculated 1 day after application; assessed after 6 days incubation

| Compound | control of the fungal infection [1] | control of the fungal infection [2] | control of the fungal infection [3] | control of the fungal infection [4] | control of the fungal infection [5] | control of the fungal infection [6] | control of the fungal infection [7] | control of the fungal infection [8] |
| --- | --- | --- | --- | --- | --- | --- | --- | --- |
| COCC(C)Nc1cc(-c2ncnc(Nc3cccc(Cl)c3)n2)ccn1 (centres unmarked) [Compound A1.03] | over 70% | over 70% | over 70% | over 70% | over 70% | over 70% | Over 70% |  |
| COCC(C)Nc1cc(-c2ncnc(Nc3cccc(C)c3)n2)ccn1 (centres unmarked) [Compound A1.05] | over 70% | over 70% | over 70% | over 70% | over 70% | over 70% | Over 70% |  |
| COCC(C)Nc1cc(-c2ccnc(Nc3cccc(Cl)c3)c2)ccn1 (centres unmarked) [Compound A1.10, N*2′*-(3-Chloro-phenyl)-N*2*-(2-methoxy-1-methyl-ethyl)-[4,4′]bipyridinyl-2,2′-diamine] |  |  | over 70% | over 70% |  |  |  | over 70% |
| CC1COC(=O)N1c1cc(-c2ccnc(Nc3cccc(Cl)c3)c2)ccn1 (centres unmarked) [Compound A1.11] | over 70% | over 70% | over 70% | over 70% | over 70% | over 70% | Over 70% |  |
| COCC(C)Nc1cc(-c2ccnc(Nc3ccc(OC)c(Cl)c3)n2)ccn1 (centres unmarked) [Compound A1.15] | over 70% | over 70% | over 70% |  | over 70% | over 70% | Over 70% |  |
| COCC(C)Nc1cc(-c2ccnc(Nc3ccc(C)c(Cl)c3)n2)ccn1 (centres unmarked) [Compound A1.16] | over 70% | over 70% | over 70% |  | over 70% | over 70% | Over 70% |  |
| COCC(C)Nc1cc(-c2ccnc(Nc3cccc([N+](=O)[O-])c3)n2)ccn1 (centres unmarked) [Compound A1.20] | over 70% | over 70% | over 70% | over 70% | over 70% | over 70% | Over 70% |  |
| COCC(C)Nc1cc(-c2ccnc(Nc3ccc(C(=O)OC)cc3)n2)ccn1 (centres unmarked) [Compound A1.21] | over 70% | over 70% | over 70% | over 70% | over 70% | over 70% | Over 70% |  |
| COCC(C)Nc1cc(-c2ccnc(Nc3ccc4[nH]ccc4c3)n2)ccn1 (centres unmarked) [Compound A1.22] | over 70% | over 70% | over 70% |  | over 70% | over 70% | Over 70% |  |
| COCC(C)Nc1cc(-c2ccnc(Nc3ccc4[nH]ncc4c3)n2)ccn1 (centres unmarked) [Compound A1.23] | over 70% | over 70% | over 70% |  | over 70% | over 70% | Over 70% |  |
| O=[N+]([O-])c1cccc(Nc2nccc(-c3ccnc(NCCCO)c3)n2)c1 [Compound A1.45] | over 70% | over 70% | over 70% | over 70% | over 70% | over 70% | Over 70% | over 70% |
| COCC(C)Nc1cc(-c2ccnc(Nc3cc(Cl)cc(Cl)c3)n2)ccn1 (centres unmarked) [Compound A1.64] | over 70% | over 70% | over 70% |  | over 70% | over 70% | Over 70% |  |
| COCC(C)Nc1cc(-c2ccnc(Nc3ccc(C)cc3)n2)ccn1 (centres unmarked) [Compound A1.66] | over 70% | over 70% | over 70% | over 70% | over 70% | over 70% | Over 70% |  |
